Data published in PubChem BioAssay AID2685 (National Center for Advancing Translational Sciences (NCATS), 2010).
Some of the results follow. Further columns of the screen follow, without active or inactive calls. Compounds called inactive in the main read-out are mostly missing here. The note in brackets gives the kind of curve behind each potency; many fits are weak.

Test: qHTS Assay for Lipid Storage Modulators in Drosophila S3 Cells;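 for cell number change: cells counted by Cell Tracker Red CMTPX staining in the red channel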
Details: BODIPY lipid droplet fluorescence, 18-24 h; for cell number change: measured here: cell count max response, cells fed with added oleic acid
How it was run: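 Drosophila S3 cells loaded with oleic acid (400 uM, as added) and compounds at several concentrations; lipid droplets imaged by 488-nm laser-scanning cytometry, 500–530 nm intensity and object ratio to cell channel. Percent activity normalized to 20 uM Triacsin C.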

[1] = measured here: lipid fluorescence (Fed channel) AC50, cells fed with added oleic acid
[2] = measured here: cell number channel AC50, cells fed with added oleic acid

Row | Structure (SMILES) | cell number change [%] | AC50 [1] | AC50 [2]
1 | CCC1CCc2c(n(C)c3ccccc3c2=O)O1 (stereo unspecified) | -3.54 | 2.31 µM [rising, full curve] | –
2 | O=C(c1ccc(CS(=O)(=O)c2ccc(Br)cc2)o1)N1CCN(c2ccccn2)CC1 | -1.98 | 7.31 µM [rising, partial curve] | –
3 | Cc1ccc(CSc2nc3c(c(SCC(=O)O)n2)CCCC3)cc1 | 18.4 | 18.4 µM [falling, single point] | –
4 | Cc1nn(Cc2cccc(C(=O)Nc3ccn(Cc4ccccc4)n3)c2)c(C)c1[N+](=O)[O-] | 32.6 | 0.58 µM [rising, single point] | 1.84 µM [rising, full curve, poor fit]
5 | CCCN(C(=O)C1CC(=O)N(c2ccccc2C(C)CC)C1)C1CCS(=O)(=O)C1 (stereo unspecified) | 10.2 | 0.461 µM [rising, full curve, poor fit] | –
6 | COc1cc(O)oc1C=Nc1ccc(C(=O)O)cc1 | 6.15 | – | –
7 | O=C(Cc1ccc(S(=O)(=O)N2CCOCC2)s1)Nc1cc(C(F)(F)F)cc(C(F)(F)F)c1 | 4.03 | 1.84 µM [falling, partial curve] | 1.64 µM [falling, partial curve]
8 | O=C(Nc1ccccc1F)C1CCCN1S(=O)(=O)c1ccc(Cl)cc1 (stereo unspecified) | -8.25 | 0.92 µM [falling, full curve, poor fit] | –
9 | CCOC(=O)C1CCCN(Cc2nc(N)nc(Nc3ccc(C)cc3)n2)C1 (stereo unspecified) | – | 2.91 µM [rising, partial curve] | 4.11 µM [rising, single point]
10 | CC(C)c1nc2sc3c(c2c(=O)[nH]1)CC(C)(C)OC3 | 25.4 | 2.91 µM [rising, single point] | 3.26 µM [rising, single point]
11 | Cc1c(NC(=O)CCSc2ccc(Cl)cc2)c(=O)n(-c2ccccc2)n1C | – | – | 0.13 µM [falling, full curve, poor fit]
12 | CC1CCN(S(=O)(=O)c2ccc3c(c2)N(CC(=O)NCc2cccnc2)C(=O)CS3)CC1 | 15.5 | 0.231 µM [rising, full curve, poor fit] | –
13 | FC(F)(F)c1ccccc1NC(=S)N1CCN(c2ncccn2)CC1 | 15.6 | 29.1 µM [rising, single point] | –
14 | C/C(CC(=O)Nc1ccc2c(c1)OCCO2)=N\NC(=O)c1ccccn1 | -7.51 | 2.31 µM [falling, single point] | –
15 | Cc1ccc(S(=O)(=O)N2CCCC(C(=O)N3CCN(C)CC3)C2)cc1 (stereo unspecified) | – | 35.5 µM [rising, single point] | –
16 | Cc1ccc(-n2c(C)cc(C(=O)COC(=O)c3c(C)noc3C)c2C)cc1 | -26.9 | 29.1 µM [falling, single point] | –
17 | COc1cccc(-n2c(SCC(=O)NCC3CCCO3)nc3c([nH]c4ccccc43)c2=O)c1 (stereo unspecified) | 4.53 | 32.6 µM [falling, single point] | –
18 | CN(CCNC(=O)C1CCC(=O)N(Cc2cccc(F)c2)C1)CCc1ccccc1 (stereo unspecified) | 16.2 | – | 4.61 µM [rising, single point]
19 | CCCOn1c(OCC(C)C)nc2ccccc2c1=O | -31.8 | 6.51 µM [rising, single point] | 16.4 µM [falling, single point]
20 | Cc1nc(/C=[N+](\[O-])C(C)(C)/C=N/O)n(O)c1C | -13 | 29.1 µM [falling, single point] | –

Row | Structure (SMILES) | cell number change [%] | AC50 [1] | AC50 [2]
21 | CCCc1nc2sc3c(c2c(=O)n1NC(=O)CCCl)CCCC3 | -36.9 | 4.11 µM [falling, full curve] | 4.61 µM [falling, full curve]
22 | CCc1nnc(NC(=O)CCC(=O)N2CCN(Cc3ccc(C)cc3C)CC2)s1 | 20.5 | 18.4 µM [falling, single point] | –
23 | COC(=O)C(C)n1cnc2c(nnn2Cc2ccc(Cl)cc2)c1=O (stereo unspecified) | -42.9 | 0.517 µM [rising, single point] | –
24 | O=C(CNC(=O)c1cc(S(=O)(=O)N2CCCCC2)ccc1N1CCOCC1)Nc1ccc(F)c(F)c1 | – | 0.92 µM [rising, full curve, poor fit] | –
25 | O=C(N/N=C/c1ccsc1)c1ccc2ccccc2n1 | – | – | 4.61 µM [rising, single point]
26 | Cc1ccc(CN2CC(C(=O)OCc3ccccc3Cl)CC2=O)cc1 (stereo unspecified) | – | 6.51 µM [falling, single point] | –
27 | CCCC(C)c1nnc(NC(=O)CN2C(=O)c3ccccc3C2=O)s1 (stereo unspecified) | -37.3 | 32.6 µM [falling, single point] | 32.6 µM [falling, single point]
28 | Clc1ccc(-c2nnc3sc(Cc4cccs4)nn23)c(Cl)c1 | -10.5 | 4.11 µM [rising, single point] | –
29 | O=C(Nc1ccc(NC(=O)c2ccco2)cc1)c1ccco1 | -3.78 | – | –
30 | CCCc1cc(=O)[nH]c(SCC(=O)Nc2sccc2C#N)n1 | 34.2 | – | –
31 | CCn1c(C(=O)O)c(CC(=O)Nc2ccc(Br)cc2C)c2ccccc21 | -43 | – | 25.9 µM [falling, single point]
32 | CCOC(=O)N1CCN(S(=O)(=O)c2ccc(C)c(C(=O)NC3CCCCC3)c2)CC1 | – | – | 0.92 µM [rising, partial curve]
33 | O=C1CSC(=S)N1/N=C/c1cc(Br)ccc1O | 1.68 | – | –
34 | C/C(=N\NC(=O)c1c(Cl)c(C)nn1C)c1cccc(NC(=O)COc2ccc(Cl)cc2)c1 | 19.9 | – | –
35 | COc1cccc(NC(=O)COC(=O)c2nc(Cl)ccc2Cl)c1 | – | 0.00461 µM [falling, full curve, poor fit] | –
36 | COc1cc2c(cc1NC(=O)COC(=O)[C@@H](NC(=O)c1ccccc1F)C(C)C)oc1ccccc12 | -12.2 | 10.3 µM [falling, single point] | –
37 | Cc1ccc(NC(=O)c2cccs2)cc1NC(=O)c1cccnc1 | -57.1 | 29.1 µM [falling, single point] | 29.1 µM [falling, single point]
38 | COC(=O)c1sc(C(C)(C)C)cc1CSc1ccccc1 | 34 | 9.2 µM [rising, partial curve, poor fit] | –
39 | CC(C)CC(=O)N1CCN(S(=O)(=O)c2ccc3ccccc3c2)CC1 | -49.9 | – | 29.1 µM [falling, single point]
40 | Cc1c(OCc2nn[nH]n2)ccc2c3c(c(=O)oc12)CCC(C)C3 (stereo unspecified) | -50.5 | 9.2 µM [falling, partial curve, poor fit] | 29.1 µM [falling, single point]

Entries of single compounds from above.
`CCOC(=O)N1CCN(S(=O)(=O)c2ccc(C)c(C(=O)NC3CCCCC3)c2)CC1` as listed: AC50 [2]: 0.92 µM [rising, partial curve]
`CC(C)CC(=O)N1CCN(S(=O)(=O)c2ccc3ccccc3c2)CC1` as listed: cell number change [%]: -49.9; AC50 [2]: 29.1 µM [falling, single point]

Continuation.

Row | Structure (SMILES) | cell number change [%] | AC50 [1] | AC50 [2]
41 | Cn1c(=O)n(C)c2cc(NC(=O)c3cc4ccccc4o3)ccc21 | -12.9 | 0.116 µM [rising, full curve, poor fit] | –
42 | COC(=O)c1ccc(CNC(=O)C(NC(=O)c2ccco2)C(C)C)cc1 (stereo unspecified) | 25.7 | 20.6 µM [rising, partial curve] | –
43 | Cc1ccc2ccc3cccc4ccc1c2c34 | -44.5 | 9.2 µM [falling, single point] | 10.3 µM [falling, single point]
44 | Cc1cccc(NC(=O)CSc2nc3ccccc3c3nc(CCc4c(C)n[nH]c4C)nn23)c1 | -31.3 | – | 29.1 µM [falling, single point]
45 | O=C(CSc1n[nH]c(-c2ccncc2)n1)Nc1ccc(Br)cc1 | -20.3 | – | 0.00411 µM [falling, full curve, poor fit]
46 | CC(C)C(C(=O)NCc1ccco1)N(CC1CCCO1)C(=O)CNS(=O)(=O)c1ccc(F)cc1 (stereo unspecified) | -7.69 | 0.58 µM [rising, partial curve] | –
47 | O=c1[nH]c(C2CCN(S(=O)(=O)c3ccc(C(F)(F)F)cc3)CC2)nc2c1nnn2Cc1ccc(F)cc1 | 13.9 | 0.58 µM [rising, single point] | –
48 | Cc1ccccc1C(=O)Nc1cccc(N)c1 | -0.674 | – | –
49 | CN1C(=O)S/C(=C/c2ccc(OCc3cccc(C(=O)O)c3)cc2)C1=O | 25.9 | 5.8 µM [rising, single point] | –
50 | COc1ccc(-c2cc(C)no2)cc1S(=O)(=O)Nc1cccc(CN2CCCC2)c1 | – | 29.1 µM [rising, single point] | –
51 | O=C(CN1C(=O)NC2(CCCC2)C1=O)OCCOc1cccc(Br)c1 | – | – | 4.11 µM [rising, single point]
52 | COCCN1CCN(Cc2cn(C)nc2-c2cccc(Cl)c2)CC1 | 47.7 | 0.13 µM [rising, full curve, poor fit] | 20.6 µM [rising, partial curve]
53 | COc1ccccc1-c1cc(C(=O)NCCc2ccccc2)no1 | – | 7.31 µM [rising, partial curve] | –
54 | Nc1nc(=S)c2ncn(C3CCCC3)c2[nH]1 | 2.77 | – | 0.13 µM [falling, full curve, poor fit]
55 | CCOC(=O)N1CCN(C(=O)c2ccc(NS(=O)(=O)c3ccc4[nH]c(=O)[nH]c4c3)cc2)CC1 | -9 | – | –
56 | Cc1ccc(C(=O)OCC(=O)N2CCOCC2)c(C)c1 | 0.901 | 0.13 µM [falling, full curve, poor fit] | –
57 | COc1cc([N+](=O)[O-])ccc1NC(=O)Nn1cnnc1 | 26.7 | 4.47 µM [rising, partial curve] | –
58 | CCCCC(=O)OCC(=O)N1N=C(c2c[nH]c3ccccc23)C(O)C1c1ccc(OC)cc1 (stereo unspecified) | -42.4 | 29.1 µM [falling, single point] | 20.6 µM [falling, single point]
59 | Cc1c(C#N)c(N=CN(C)C)c(C(=O)c2ccc(Br)cc2)n1-c1ccccc1 | 19.4 | – | –
